# Data: paper PMC7819943, “Rice protein-binding microarrays: a tool to detect cis-acting elements near promoter regions in rice”
# This is one part of the list.
# Target: T1, OsSMF1 (Oryza sativa, UniProt Q6ZLB0 1-436)
# T1 sequence: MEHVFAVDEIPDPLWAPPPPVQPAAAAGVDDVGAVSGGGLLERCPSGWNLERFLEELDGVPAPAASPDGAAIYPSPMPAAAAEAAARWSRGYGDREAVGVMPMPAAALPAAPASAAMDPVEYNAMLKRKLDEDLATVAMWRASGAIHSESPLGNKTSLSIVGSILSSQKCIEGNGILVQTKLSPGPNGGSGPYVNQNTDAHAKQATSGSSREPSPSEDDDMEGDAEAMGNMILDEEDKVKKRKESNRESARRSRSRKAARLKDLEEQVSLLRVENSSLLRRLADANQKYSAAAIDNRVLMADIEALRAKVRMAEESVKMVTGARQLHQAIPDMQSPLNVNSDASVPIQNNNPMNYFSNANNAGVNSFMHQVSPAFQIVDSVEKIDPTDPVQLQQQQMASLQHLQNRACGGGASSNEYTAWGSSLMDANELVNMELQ
# Assay: protein-binding microarray (RPBM); PBS, 2% BSA, 51.3 ng/ul salmon testes DNA, 50 uM zinc acetate, 200 nM TF, 25 C, 1 h; high values mean tight binding
# Conditions: protein: recombinant; tags: N-terminal polyhistidine and DsRed monomer fusion (pET32a); chain copies: 2; label: CyDye5-dUTP incorporated in the synthesized complementary strand; 3' TTTTT single-stranded linker to array surface; dsDNA, one strand shown
# In short: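 Binding signal here means per-feature fluorescence intensity in arbitrary units. The values were read on an Axon 4000B scanner after a custom Agilent array, double-stranded by primer extension with Cy5-dUTP, was incubated with 200 nM protein at 25 °C for 1 h in PBS with 2% BSA, salmon testes DNA and 50 µM zinc acetate, then washed. The proteins were transcription factors with an N-terminal polyhistidine tag and DsRed, expressed in E. coli BL21-CodonPlus and purified on Ni–NTA.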
row,Sequence,binding signal
1,CGCGGGTGACGCGAGAATATTCCGAGTTCATATCCTTCATCGGAGTCACCTAGTGCAG,3830 fluorescence intensity (a.u.)
2,CGCCAATAAAGTTGGCGCTGACACGTTATATCTCAGCGCCCGGAGTCACCTAGTGCAG,4050 fluorescence intensity (a.u.)
3,AATGCTAAAGATGAAAAGTGAACCACGTTGATTATCCCGACGGAGTCACCTAGTGCAG,3370 fluorescence intensity (a.u.)
4,GAAGGGGAGAGGGGTGGAAGGGGTAGGAGGATCGGTGAGGCGGAGTCACCTAGTGCAG,3280 fluorescence intensity (a.u.)
5,CATCCATCCGGTCAAAGCAGCCGGCCACGTGGCGTGTCCCCGGAGTCACCTAGTGCAG,28100 fluorescence intensity (a.u.)
6,GCTGTACCAGTACTGACCGGGGTGGGGTGGCGGGAGCGGACGGAGTCACCTAGTGCAG,5320 fluorescence intensity (a.u.)
7,AACGGCAAACCAACAGCTCGGCCGGCCTGAGAGCCGCGGGCGGAGTCACCTAGTGCAG,4660 fluorescence intensity (a.u.)
8,AACCGTCGCAAGACAAAATAATGGTACGCGTGGGGCCGGTCGGAGTCACCTAGTGCAG,3510 fluorescence intensity (a.u.)
9,AAGATCATCACAATTCATCACTCACAACCACATCACATCCCGGAGTCACCTAGTGCAG,3260 fluorescence intensity (a.u.)
10,CCCCTTCAGGATGCTACGTGGCGTTGATGTGGCATGCCACCGGAGTCACCTAGTGCAG,17000 fluorescence intensity (a.u.)
11,CCTGCTCGCCCGTGCCGCGTGCCAGCCGCTCCGTCACGTCCGGAGTCACCTAGTGCAG,4790 fluorescence intensity (a.u.)
12,TCGCAGGTCAAATGTGGGCTACGGGAGAGTGTCGGCGTGGCGGAGTCACCTAGTGCAG,4440 fluorescence intensity (a.u.)
13,TGGACAGCGAGAAGCTGGTGATGGACCAGCGACGGCGCAGCGGAGTCACCTAGTGCAG,23500 fluorescence intensity (a.u.)
14,CGTCATGTCGCGTCGCGTCGTGTCGTGTCGCCGACATCGCCGGAGTCACCTAGTGCAG,4080 fluorescence intensity (a.u.)
15,TTCCGCAACCTCGGTACGTGTTCAATATGTTGCGCATATTCGGAGTCACCTAGTGCAG,4200 fluorescence intensity (a.u.)
16,AGTATTACTAAAATACTAGTACGCTGTACACGGCATTATTCGGAGTCACCTAGTGCAG,3250 fluorescence intensity (a.u.)
17,AAACAGACTCATACTCAGATGACGTACCAAAGTATCGGCACGGAGTCACCTAGTGCAG,3900 fluorescence intensity (a.u.)
18,AAGCAATTGAGGTTATCATTCATCAATGGACCTGACCTGGCGGAGTCACCTAGTGCAG,5030 fluorescence intensity (a.u.)
19,CCAGTATATATGTTGCATCAGCAGCATCATCAAACCTGGTCGGAGTCACCTAGTGCAG,4870 fluorescence intensity (a.u.)
20,ACAAATCTCCAGCTAGACACAAAATGTTCTTTTGAATGAACGGAGTCACCTAGTGCAG,5000 fluorescence intensity (a.u.)
21,ATACTTAGCCCTGCATTATACAAGTCTAGGCTGATTATTGCGGAGTCACCTAGTGCAG,3140 fluorescence intensity (a.u.)

row,Sequence,binding signal
1,AATCAGGGTGGCGTGGATACTCGCCGGCCACCTCCCTTTTCGGAGTCACCTAGTGCAG,3560 fluorescence intensity (a.u.)
2,TATTTCATCCGCTGCAAGTGATCCACATCACGCGAGCCCCCGGAGTCACCTAGTGCAG,4850 fluorescence intensity (a.u.)
3,TGGAACGCTCCATGCATGTCAGCACTTGTCACTGCTCTGCCGGAGTCACCTAGTGCAG,7840 fluorescence intensity (a.u.)
4,TTCTGATTAGGCTGCCACATTGGCGGCACGTGTGATAGCTCGGAGTCACCTAGTGCAG,45900 fluorescence intensity (a.u.)
5,TCGAGGGAAGGGGATTGGGAGTTTACACGAGGGAATTGATCGGAGTCACCTAGTGCAG,3760 fluorescence intensity (a.u.)
6,TCTTCCCGCTCGCCACGTCAGCGCCATGTGAGCAAAACTACGGAGTCACCTAGTGCAG,15500 fluorescence intensity (a.u.)
7,TACTCTACGTGCGTACAAGTCGCATGTGGAGATGATTAGGCGGAGTCACCTAGTGCAG,3860 fluorescence intensity (a.u.)
8,TAAAGGGAGGAGGGGAGATGGGCAGTGGCGGCTAGGGTTTCGGAGTCACCTAGTGCAG,3580 fluorescence intensity (a.u.)
9,TCTGCAACTATCTGTCCACGCAAGTAAGCATCCATCGATGCGGAGTCACCTAGTGCAG,3460 fluorescence intensity (a.u.)
10,GATAGTGTCCCACGCATGCGTCCACGAGTCCTCGACGCAACGGAGTCACCTAGTGCAG,3690 fluorescence intensity (a.u.)
11,TAATCTGGGAGACGGGGAGAGTATTGCGTTGAGGCCGTCACGGAGTCACCTAGTGCAG,3250 fluorescence intensity (a.u.)
12,GCTTGCTTTGTCACATGCAGTTTTACACCTTTTATTTCTCCGGAGTCACCTAGTGCAG,6070 fluorescence intensity (a.u.)
13,TCACTGCTATTTCACATGTAACAAGTTACACGTGGAATATCGGAGTCACCTAGTGCAG,8290 fluorescence intensity (a.u.)
14,CATCATCACCTCCATCATCATGCTTTGCTTGCTTGCTCTACGGAGTCACCTAGTGCAG,3140 fluorescence intensity (a.u.)
15,CAACACCGAATTGCAATCCACTCATGATTGGTATCATTAGCGGAGTCACCTAGTGCAG,3340 fluorescence intensity (a.u.)
16,TGTGTGTGTGTGTGTGTGTGTGTGGATGAGTGTGTGTGTGCGGAGTCACCTAGTGCAG,3780 fluorescence intensity (a.u.)
17,ATTAGGTTTTATATTTATCTATATTTAATGCTTCATGTATCGGAGTCACCTAGTGCAG,3440 fluorescence intensity (a.u.)
18,CCCACACCACCACACGCGTCGCGCGTGACTGCAAGCGGATCGGAGTCACCTAGTGCAG,3820 fluorescence intensity (a.u.)
19,ATATGCCGAGATGGCTCCATGATTTGTGTAATAAGTATTTCGGAGTCACCTAGTGCAG,3230 fluorescence intensity (a.u.)
20,AAGAAAGAACATGGAGAAAAGGATGGGAAGAGAGAAGAAACGGAGTCACCTAGTGCAG,3560 fluorescence intensity (a.u.)
21,TGCAAATGGTGTTGCAGAGAAGCTGACACAATATGGTATACGGAGTCACCTAGTGCAG,3240 fluorescence intensity (a.u.)

# Nothing new here: an excerpt of the list.
row,Sequence,binding signal
13,TCACTGCTATTTCACATGTAACAAGTTACACGTGGAATATCGGAGTCACCTAGTGCAG,8290 fluorescence intensity (a.u.)
14,CATCATCACCTCCATCATCATGCTTTGCTTGCTTGCTCTACGGAGTCACCTAGTGCAG,3140 fluorescence intensity (a.u.)
15,CAACACCGAATTGCAATCCACTCATGATTGGTATCATTAGCGGAGTCACCTAGTGCAG,3340 fluorescence intensity (a.u.)
16,TGTGTGTGTGTGTGTGTGTGTGTGGATGAGTGTGTGTGTGCGGAGTCACCTAGTGCAG,3780 fluorescence intensity (a.u.)
17,ATTAGGTTTTATATTTATCTATATTTAATGCTTCATGTATCGGAGTCACCTAGTGCAG,3440 fluorescence intensity (a.u.)
18,CCCACACCACCACACGCGTCGCGCGTGACTGCAAGCGGATCGGAGTCACCTAGTGCAG,3820 fluorescence intensity (a.u.)
19,ATATGCCGAGATGGCTCCATGATTTGTGTAATAAGTATTTCGGAGTCACCTAGTGCAG,3230 fluorescence intensity (a.u.)
20,AAGAAAGAACATGGAGAAAAGGATGGGAAGAGAGAAGAAACGGAGTCACCTAGTGCAG,3560 fluorescence intensity (a.u.)
21,TGCAAATGGTGTTGCAGAGAAGCTGACACAATATGGTATACGGAGTCACCTAGTGCAG,3240 fluorescence intensity (a.u.)
